Read-outs that look alike come from different tables or passages of the source. Results are given in words; binding and its absence hold for the method and conditions named. For some assays here: In cells and extracts the contact can be indirect. Some results given as binding are weak or reduced against the parent protein; the word gives no strength. For some assays here: Where a sequence is shown, tags or fusion partners need not be part of it. Blank lines part the entries; values can stand above or below the molecule they belong to.
What was measured:
[1] = molecular target: T1, Spp1 (S. cerevisiae) (UniProt Q03012); assay: two-hybrid
T1 sequence: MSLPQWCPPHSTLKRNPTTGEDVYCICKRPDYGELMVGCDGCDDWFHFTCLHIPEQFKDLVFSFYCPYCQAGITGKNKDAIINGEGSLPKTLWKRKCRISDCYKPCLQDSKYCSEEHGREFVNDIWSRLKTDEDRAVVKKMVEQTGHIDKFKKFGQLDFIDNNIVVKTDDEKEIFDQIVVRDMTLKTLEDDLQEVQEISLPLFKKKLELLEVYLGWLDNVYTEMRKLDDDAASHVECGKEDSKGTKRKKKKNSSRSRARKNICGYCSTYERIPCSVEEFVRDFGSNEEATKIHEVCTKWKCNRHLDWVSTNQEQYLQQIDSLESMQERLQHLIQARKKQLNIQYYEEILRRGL

Protein sequences, listed by entry. Tags and fused reporters are not part of them. Residues count along the entry.
UniProt P22082, whole entry: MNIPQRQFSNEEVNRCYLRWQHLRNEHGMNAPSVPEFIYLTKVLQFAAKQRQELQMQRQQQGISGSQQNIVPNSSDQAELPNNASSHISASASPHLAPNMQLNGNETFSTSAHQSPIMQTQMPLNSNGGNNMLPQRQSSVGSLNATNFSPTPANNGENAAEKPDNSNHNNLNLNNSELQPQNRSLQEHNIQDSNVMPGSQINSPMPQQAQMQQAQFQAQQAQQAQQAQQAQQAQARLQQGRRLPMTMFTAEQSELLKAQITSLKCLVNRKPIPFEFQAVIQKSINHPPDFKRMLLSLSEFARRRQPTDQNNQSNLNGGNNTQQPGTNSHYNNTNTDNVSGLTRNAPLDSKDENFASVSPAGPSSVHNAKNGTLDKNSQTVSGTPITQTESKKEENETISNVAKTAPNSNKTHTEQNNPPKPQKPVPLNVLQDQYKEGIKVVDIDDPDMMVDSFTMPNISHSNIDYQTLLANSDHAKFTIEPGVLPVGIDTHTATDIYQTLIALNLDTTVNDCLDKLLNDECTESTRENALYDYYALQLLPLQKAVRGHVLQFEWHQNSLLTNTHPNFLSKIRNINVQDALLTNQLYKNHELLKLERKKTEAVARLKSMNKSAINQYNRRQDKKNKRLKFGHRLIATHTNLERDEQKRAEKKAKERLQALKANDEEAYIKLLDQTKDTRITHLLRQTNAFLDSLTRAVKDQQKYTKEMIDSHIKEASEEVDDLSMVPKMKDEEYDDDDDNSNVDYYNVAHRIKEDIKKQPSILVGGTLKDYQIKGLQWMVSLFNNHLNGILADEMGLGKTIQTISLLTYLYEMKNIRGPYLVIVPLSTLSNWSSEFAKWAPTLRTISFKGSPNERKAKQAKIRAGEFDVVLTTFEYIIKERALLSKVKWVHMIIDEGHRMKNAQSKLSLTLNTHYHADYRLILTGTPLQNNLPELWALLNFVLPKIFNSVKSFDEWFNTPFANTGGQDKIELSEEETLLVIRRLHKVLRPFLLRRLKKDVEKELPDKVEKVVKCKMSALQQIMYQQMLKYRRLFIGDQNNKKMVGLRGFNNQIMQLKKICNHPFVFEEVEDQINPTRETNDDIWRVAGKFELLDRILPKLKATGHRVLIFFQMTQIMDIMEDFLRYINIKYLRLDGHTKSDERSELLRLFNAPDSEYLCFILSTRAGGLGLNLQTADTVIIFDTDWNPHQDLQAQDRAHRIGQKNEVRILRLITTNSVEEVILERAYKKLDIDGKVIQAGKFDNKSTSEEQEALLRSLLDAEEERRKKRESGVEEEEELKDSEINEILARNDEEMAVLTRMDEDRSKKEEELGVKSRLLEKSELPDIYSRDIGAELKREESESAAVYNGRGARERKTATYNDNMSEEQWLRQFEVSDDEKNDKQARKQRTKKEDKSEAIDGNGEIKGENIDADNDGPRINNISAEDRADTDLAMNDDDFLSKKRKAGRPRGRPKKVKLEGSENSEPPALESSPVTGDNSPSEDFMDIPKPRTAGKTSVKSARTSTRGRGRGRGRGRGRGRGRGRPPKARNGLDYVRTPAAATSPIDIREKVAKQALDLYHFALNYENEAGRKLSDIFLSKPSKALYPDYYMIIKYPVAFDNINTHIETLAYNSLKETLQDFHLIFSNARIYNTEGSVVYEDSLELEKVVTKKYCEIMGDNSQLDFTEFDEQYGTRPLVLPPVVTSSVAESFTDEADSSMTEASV
UniProt P29469, whole entry: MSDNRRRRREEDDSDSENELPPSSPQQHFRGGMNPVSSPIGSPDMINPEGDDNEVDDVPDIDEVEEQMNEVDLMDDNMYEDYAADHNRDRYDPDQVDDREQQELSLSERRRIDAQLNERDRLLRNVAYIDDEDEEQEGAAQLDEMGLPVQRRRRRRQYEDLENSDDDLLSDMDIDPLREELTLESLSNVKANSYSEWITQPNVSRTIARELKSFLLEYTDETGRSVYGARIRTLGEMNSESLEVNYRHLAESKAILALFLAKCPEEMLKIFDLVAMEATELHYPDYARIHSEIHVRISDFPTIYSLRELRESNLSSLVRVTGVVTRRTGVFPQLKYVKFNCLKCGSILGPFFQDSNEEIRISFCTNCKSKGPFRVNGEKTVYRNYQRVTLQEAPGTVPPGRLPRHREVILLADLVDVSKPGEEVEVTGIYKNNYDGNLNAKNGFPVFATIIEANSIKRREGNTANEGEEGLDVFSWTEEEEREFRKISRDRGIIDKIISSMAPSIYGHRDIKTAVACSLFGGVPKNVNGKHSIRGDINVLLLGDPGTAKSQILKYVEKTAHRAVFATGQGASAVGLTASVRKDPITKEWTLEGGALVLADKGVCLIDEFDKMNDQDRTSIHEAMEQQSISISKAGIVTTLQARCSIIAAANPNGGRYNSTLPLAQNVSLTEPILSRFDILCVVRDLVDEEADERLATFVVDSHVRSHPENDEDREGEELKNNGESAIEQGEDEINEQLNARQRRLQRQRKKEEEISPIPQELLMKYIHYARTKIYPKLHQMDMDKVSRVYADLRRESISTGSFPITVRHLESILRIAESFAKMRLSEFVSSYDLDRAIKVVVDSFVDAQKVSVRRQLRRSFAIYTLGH
UniProt P29469, 791-867: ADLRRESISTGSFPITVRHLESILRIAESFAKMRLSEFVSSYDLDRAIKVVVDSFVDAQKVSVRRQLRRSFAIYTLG

[2] = molecular target: T2, GST-Spp1 (S. cerevisiae) (UniProt Q03012); assay: pull-down
T2 sequence: T1 sequence

[3] = molecular target: T3, Prp22-AID-6FLAG (S. cerevisiae) (UniProt P24384); assay: co-IP
T3 sequence: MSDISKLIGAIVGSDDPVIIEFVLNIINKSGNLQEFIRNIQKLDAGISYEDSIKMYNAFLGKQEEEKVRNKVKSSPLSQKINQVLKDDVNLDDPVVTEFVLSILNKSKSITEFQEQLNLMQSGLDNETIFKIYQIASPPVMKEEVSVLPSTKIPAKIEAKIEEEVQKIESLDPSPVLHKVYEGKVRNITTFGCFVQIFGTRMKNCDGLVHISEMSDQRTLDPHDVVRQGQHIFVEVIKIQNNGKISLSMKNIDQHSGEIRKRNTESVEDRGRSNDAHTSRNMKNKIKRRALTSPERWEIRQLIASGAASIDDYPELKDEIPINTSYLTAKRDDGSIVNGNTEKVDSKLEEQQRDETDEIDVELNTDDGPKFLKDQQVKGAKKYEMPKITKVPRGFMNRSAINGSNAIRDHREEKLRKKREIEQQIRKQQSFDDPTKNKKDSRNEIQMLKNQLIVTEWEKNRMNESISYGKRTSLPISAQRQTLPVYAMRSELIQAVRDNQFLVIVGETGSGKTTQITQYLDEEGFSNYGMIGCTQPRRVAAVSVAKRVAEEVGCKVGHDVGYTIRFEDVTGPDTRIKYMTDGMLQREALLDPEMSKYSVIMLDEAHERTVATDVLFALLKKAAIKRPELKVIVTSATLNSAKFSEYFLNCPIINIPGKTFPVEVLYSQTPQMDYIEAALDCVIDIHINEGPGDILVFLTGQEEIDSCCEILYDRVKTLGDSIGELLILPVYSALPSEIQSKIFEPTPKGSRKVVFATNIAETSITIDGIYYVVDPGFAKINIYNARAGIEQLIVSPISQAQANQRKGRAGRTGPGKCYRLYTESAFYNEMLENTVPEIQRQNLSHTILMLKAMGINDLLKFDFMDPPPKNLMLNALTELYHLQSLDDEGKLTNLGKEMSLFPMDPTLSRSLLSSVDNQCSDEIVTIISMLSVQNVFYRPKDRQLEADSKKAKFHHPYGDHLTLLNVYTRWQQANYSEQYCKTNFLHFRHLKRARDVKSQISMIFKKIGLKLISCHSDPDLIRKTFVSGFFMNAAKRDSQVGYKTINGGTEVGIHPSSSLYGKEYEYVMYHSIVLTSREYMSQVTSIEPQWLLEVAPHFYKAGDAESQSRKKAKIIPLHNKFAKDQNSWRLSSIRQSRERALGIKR

[4] = molecular target: Snf2-Myc (S. cerevisiae) (UniProt P22082); assay: co-IP
[5] = molecular target: GST-Mcm2 (S. cerevisiae) (UniProt P29469); assay: pull-down
[6] = molecular target: T4, Sdc1 (S. cerevisiae) (UniProt Q03323); assay: two-hybrid
T4 sequence: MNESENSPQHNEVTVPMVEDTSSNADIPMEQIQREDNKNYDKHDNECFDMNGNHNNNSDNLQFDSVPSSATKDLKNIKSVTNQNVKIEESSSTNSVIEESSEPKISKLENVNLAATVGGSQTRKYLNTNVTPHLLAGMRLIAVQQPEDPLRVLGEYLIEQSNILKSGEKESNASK

[7] = molecular target: T1, Spp1 (S. cerevisiae); assay: two-hybrid; remark: listed apart in the source
[8] = molecular target: T5, Shg1 (S. cerevisiae) (UniProt P38337); assay: two-hybrid
T5 sequence: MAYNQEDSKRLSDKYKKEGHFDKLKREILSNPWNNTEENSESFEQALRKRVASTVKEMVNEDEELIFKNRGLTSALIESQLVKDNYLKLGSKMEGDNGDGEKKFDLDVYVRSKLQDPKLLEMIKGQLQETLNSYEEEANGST

[9] = molecular target: T6, GST-Sdc1 (S. cerevisiae) (UniProt Q03323); assay: pull-down
T6 sequence: T4 sequence

[10] = molecular target: T7, GST-Shg1 (S. cerevisiae) (UniProt P38337); assay: pull-down
T7 sequence: T5 sequence

binding [1]: binds
Molecule: Mcm2 (791-867) (from UniProt P29469 791-867) (domain or fragment)

binding [2]: binds weakly
Molecule: Mcm2 (soluble partner of the GST-Spp1 pull-down) (from UniProt P29469 1-868)

binding [3]: binds
B1: Myc-Set1 (protein, UniProt P38827 1-1080)
chain: MSNYYRRAHASSGSYRQPQEQPQYSRSGHYQYSNGHSHQQYSSQYNQRRRYNHNDGTRRRYNDDRPHSSNNASTRQYYATNNSQSGPYVNKKSDISSRRGMSQSRYSNSNVHNTLASSSGSLPTESALLLQQRPPSVLRYNTDNLKSKFHYFDPIKGEFFNKDKMLSWKATDKEFSETGYYVVKELQDGQFKFKIKHRHPEIKASDPRNENGIMTSGKVATHRKCRNSLILLPRISYDRYSLGPPPSCEIVVYPAQDSTTTNIQDISIKNYFKKYGEISHFEAFNDPNSALPLHVYLIKYASSDGKINDAAKAAFSAVRKHESSGCFIMGFKFEVILNKHSILNNIISKFVEINVKKLQKLQENLKKAKEKEAENEKAKELQGKDITLPKEPKVDTLSHSSGSEKRIPYDLLGVVNNRPVLHVSKIFVAKHRFCVEDFKYKLRGYRCAKFIDHPTGIYIIFNDIAHAQTCSNAESGNLTIMSRSRRIPILIKFHLILPRFQNRTRFNKSSSSSNSTNVPIKYESKEEFIEATAKQILKDLEKTLHVDIKKRLIGPTVFDALDHANFPELLAKRELKEKEKRQQIASKIAEDELKRKEEAKRDFDLFGLYGGYAKSNKRNLKRHNSLALDHTSLKRKKLSNGIKPMAHLLNEETDSKETTPLNDEGITRVSKEHDEEDENMTSSSSEEEEEEAPDKKFKSESEPTTPESDHLHGIKPLVPDQNGSSDVLDASSMYKPTATEIPEPVYPPEEYDLKYSQTLSSMDLQNAIKDEEDMLILKQLLSTYTPTVTPETSAALEYKIWQSRRKVLEEEKASDWQIELNGTLFDSELQPGSSFKAEGFRKIADKLKINYLPHRRRVHQPLNTVNIHNERNEYTPELCQREESSNKEPSDSVPQEVSSSRDNRASNRRFQQDIEAQKAAIGTESELLSLNQLNKRKKPVMFARSAIHNWGLYALDSIAAKEMIIEYVGERIRQPVAEMREKRYLKNGIGSSYLFRVDENTVIDATKKGGIARFINHCCDPNCTAKIIKVGGRRRIVIYALRDIAASEELTYDYKFEREKDDEERLPCLCGAPNCKGFLN

binding [4]: binds
B2: Set1 (endogenous) (protein, UniProt P38827 1-1080)
chain: B1 chain

binding [5]: binds weakly
B3: Spp1 (soluble partner of the GST-Mcm2 pull-down) (protein, UniProt Q03012 1-353)
chain: T1 sequence

binding [6]: binds | binding [7]: binds | binding [8]: binds
Molecule: VCSSNASDLDMSLLSTPSSLFQMAGETKSNPIIIPDSQDDSILSSDPF (domain or fragment, UniProt P53939 360-407) [C-terminus of Nis1 (360-407)]

binding [9]: binds | binding [10]: no binding | binding [2]: binds
B4: in vitro translated Nis1 (protein, UniProt P53939 1-407)
chain: METYETSIGTQSYPPTLFPPPLGTGGFTTSGYIHALVDSTSNSNSNSNTNSNTNSNTNSNSDTKIPIVQISDDSHITHDSFKPYMEYHDASHLRNRNISKADQVESTEVMEQFTQWSNYKMRSRSPTINAKPIRHTSQRRTDFTSKNELSKFSKNHNFIFHKGFLKRQHSIRREDRQAKVRSRFRSKKELTSVLNYIELEQMDIANVLASQPVNLHAIRNLTSRDPAVTPIPFLRSQMYATSSRPPYLRNRSISRKLPKSQPGSLPTTMPATATKTIKQNSTTPTTRSVYNKNVGRSNTSPSVLYHPKRRGKLNTKSHARKEQLLLELWREYLMLVITQRTQLRLTLLCSPGSASNESSVCSSNASDLDMSLLSTPSSLFQMAGETKSNPIIIPDSQDDSILSSDPF
